Assay results reported in the supplement of paper PMC11732987, “Enantioselective OTUD7B fragment discovery through chemoproteomics screening and high-throughput optimisation” (Communications Chemistry, 2025).
Some of the results follow. The data scatter; read single values as rough.

system: T1, MECOM C1119; experiment: log2 mean competition ratio of IA-DTB cysteine labelling (DMSO/compound) (log2 ratio); higher = stronger cysteine engagement by compound; conditions: 50 µM; treatment time: 4 h; cell line lysate: HEK293T
T1 sequence (whole entry): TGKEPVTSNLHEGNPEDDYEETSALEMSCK
Method: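 IA-DTB competitive cysteine chemoproteomics in HEK293T RIPA lysate. Lysates were treated with compound 29 or 30 at 50 or 200 µM for 4 h, then IA-DTB (500 µM, 1 h), trypsin-digested, NeutrAvidin-enriched and analysed by diaPASEF. Competition ratio = intensity DMSO / intensity compound (n=4 treated, n=64 DMSO); binding: mean log2 CR ≥ 1 and p ≤ 0.05 plus QC filters. Target is the cysteine site.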

| Compound | log2 mean competition ratio |
| --- | --- |
| O=C(CCl)N[C@@H]1CCCc2ccccc21 | -0.206 |
| O=C(CCl)N[C@H]1CCCc2ccccc21 | -0.235 |

same assay, conditions: 200 µM; treatment time: 4 h; cell line lysate: HEK293T

| Compound | log2 mean competition ratio |
| --- | --- |
| O=C(CCl)N[C@@H]1CCCc2ccccc21 | -0.166 |
| O=C(CCl)N[C@H]1CCCc2ccccc21 | 0.0483 |
